Percent effect of library compounds

Sequences of proteins named here, by UniProt entry; tags and fusion partners are left off.
UniProt I6X8D2, whole entry: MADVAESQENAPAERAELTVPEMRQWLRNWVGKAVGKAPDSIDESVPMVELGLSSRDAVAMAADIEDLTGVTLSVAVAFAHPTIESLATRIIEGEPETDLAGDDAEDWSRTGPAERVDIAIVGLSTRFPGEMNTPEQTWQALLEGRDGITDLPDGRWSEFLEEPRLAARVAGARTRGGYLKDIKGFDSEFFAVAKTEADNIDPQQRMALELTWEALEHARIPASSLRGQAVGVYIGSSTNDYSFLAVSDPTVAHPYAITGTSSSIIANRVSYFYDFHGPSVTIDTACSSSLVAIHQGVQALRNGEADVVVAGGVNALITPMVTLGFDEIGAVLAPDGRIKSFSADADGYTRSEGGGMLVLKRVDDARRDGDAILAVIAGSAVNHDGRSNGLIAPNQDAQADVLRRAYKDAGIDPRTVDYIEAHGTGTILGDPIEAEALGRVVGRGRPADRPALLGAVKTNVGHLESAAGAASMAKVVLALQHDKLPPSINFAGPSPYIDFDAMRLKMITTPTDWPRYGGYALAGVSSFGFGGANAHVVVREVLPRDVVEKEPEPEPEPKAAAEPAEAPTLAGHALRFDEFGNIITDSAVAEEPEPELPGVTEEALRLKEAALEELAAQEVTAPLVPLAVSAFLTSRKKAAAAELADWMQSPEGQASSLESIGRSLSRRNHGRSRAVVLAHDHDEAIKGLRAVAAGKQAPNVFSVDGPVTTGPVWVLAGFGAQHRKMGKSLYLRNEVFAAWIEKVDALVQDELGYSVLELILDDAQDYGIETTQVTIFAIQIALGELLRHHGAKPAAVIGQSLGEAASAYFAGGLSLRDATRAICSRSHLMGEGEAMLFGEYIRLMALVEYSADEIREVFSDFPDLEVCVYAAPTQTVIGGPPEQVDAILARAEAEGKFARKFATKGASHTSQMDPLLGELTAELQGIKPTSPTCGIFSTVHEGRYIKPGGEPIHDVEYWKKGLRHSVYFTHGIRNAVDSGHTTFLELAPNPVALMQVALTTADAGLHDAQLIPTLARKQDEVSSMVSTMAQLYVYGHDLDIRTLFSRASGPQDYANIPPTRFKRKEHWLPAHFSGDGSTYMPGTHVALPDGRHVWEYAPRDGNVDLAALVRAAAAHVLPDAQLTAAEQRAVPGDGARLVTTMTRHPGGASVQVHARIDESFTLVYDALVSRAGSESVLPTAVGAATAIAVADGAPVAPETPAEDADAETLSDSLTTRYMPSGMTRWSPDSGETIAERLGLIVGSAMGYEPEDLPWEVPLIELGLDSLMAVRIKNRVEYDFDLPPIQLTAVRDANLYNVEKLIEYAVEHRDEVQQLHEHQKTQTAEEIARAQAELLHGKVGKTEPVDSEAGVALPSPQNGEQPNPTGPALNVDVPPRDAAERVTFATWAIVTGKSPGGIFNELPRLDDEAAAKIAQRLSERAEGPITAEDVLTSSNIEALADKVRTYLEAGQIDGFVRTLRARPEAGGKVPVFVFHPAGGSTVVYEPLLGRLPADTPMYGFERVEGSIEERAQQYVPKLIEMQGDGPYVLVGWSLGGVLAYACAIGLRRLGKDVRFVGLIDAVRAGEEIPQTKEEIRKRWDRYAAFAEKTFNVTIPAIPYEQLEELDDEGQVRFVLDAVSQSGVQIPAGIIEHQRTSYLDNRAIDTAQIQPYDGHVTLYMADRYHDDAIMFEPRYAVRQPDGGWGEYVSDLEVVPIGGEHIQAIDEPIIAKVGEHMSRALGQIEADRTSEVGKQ
UniProt P9WPC5, whole entry: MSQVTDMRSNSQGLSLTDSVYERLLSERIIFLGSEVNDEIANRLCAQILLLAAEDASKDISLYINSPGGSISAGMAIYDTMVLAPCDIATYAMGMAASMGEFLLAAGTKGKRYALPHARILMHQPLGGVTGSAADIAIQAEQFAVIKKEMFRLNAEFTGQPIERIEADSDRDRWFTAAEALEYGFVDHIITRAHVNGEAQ
UniProt P9WPC3, whole entry partner: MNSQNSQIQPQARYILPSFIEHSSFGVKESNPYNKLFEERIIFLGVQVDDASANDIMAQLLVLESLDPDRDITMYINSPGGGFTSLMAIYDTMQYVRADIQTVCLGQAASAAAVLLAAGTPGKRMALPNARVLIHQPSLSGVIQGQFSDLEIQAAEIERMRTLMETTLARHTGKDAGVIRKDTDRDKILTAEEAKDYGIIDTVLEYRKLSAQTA

The values are deposited in ChEMBL (CHEMBL3988442, “University of Dundee, Small-Polar-MMV Screening Library” (2021)).

Leishmania in macrophages: 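Cell assay of Leishmania donovani living inside macrophages; the read-out is not stated. Concentration: 30 µM. Direction is inferred from retests: higher values go with stronger inhibition. About 69,000 compounds were tested under these conditions; 1.5% (about 1,000) showed 50% or more at least once.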
Pks13 thioesterase: 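Polyketide synthase Pks13, Mycobacterium tuberculosis (UniProt I6X8D2). Enzyme assay of the thioesterase domain of polyketide synthase 13; the read-out is not stated. Concentration: 30 µM. Higher reads as stronger inhibition (inferred from which compounds were picked for retests). Size under these conditions: about 67,000 compounds, about 300 of them at 50% or above in at least one test.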
ClpP1P2: 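ClpP1P2, Mycobacterium tuberculosis (UniProt P9WPC5 and UniProt P9WPC3). Protease assay of ClpP1P2, read by the AMC dye that it sets free. Concentration: 50 µM. Direction is inferred from only a few compounds that gave an IC50; most scored high, so higher reads as stronger inhibition. Most other retested compounds had strongly negative values. About 69,000 compounds were tested under these conditions; 0.015% (about 10) showed 50% or more at least once.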
T. brucei: 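Whole-parasite assay of Trypanosoma brucei over 72 hours; the read-out is not stated. Compounds at 30 µM. Higher reads as stronger inhibition (inferred: compounds with an IC50 in retests scored well above the rest). Values scatter widely below zero; nearly all retest evidence comes from the higher of the two concentrations used. Of about 64,000 compounds tested this way, about 940 (1.5%) reached 50% or more in at least one test.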

Results are given as percent effect. The record does not define 0% and 100%; most values in the screen are far below 50% and negative numbers occur (in some assays of this library far below -100). This is an unselected part of the compounds tested. A dash means the value is not listed here; it may have been measured.

* O=C(O)C(F)(F)F.O=C(O)C(F)(F)F.O=C(O)C(F)(F)F.[H][C@@]12COC[C@]1(COc1cccnc1)CN(Cc1cccnc1OC)C2 | Leishmania in macrophages: -5.599%; T. brucei: -13.14%
* CCN1CCC[C@@H]1CNC(=O)c1cc(COc2ccccc2)[nH]n1 | Leishmania in macrophages: -66.84%; Pks13 thioesterase: -23%; ClpP1P2: 12.39%; T. brucei: -40.68%
* CS(=O)(=O)N[C@@H]1CN(C(=O)c2cc3ccccc3s2)C[C@H]1O | Leishmania in macrophages: -0.05853%; Pks13 thioesterase: -13.2%; ClpP1P2: 2.017%
* Cn1ccc(CN2CCCC23CCN(Cc2ccccc2F)CC3)n1.O=C(O)C(F)(F)F.O=C(O)C(F)(F)F | Leishmania in macrophages: 36.62%; T. brucei: -74.92%
* Cc1cnc(N2C[C@@H]3[C@@H](C(=O)NC(C)C)CCS(=O)(=O)[C@@H]3C2)nc1 | Pks13 thioesterase: 10.54%; ClpP1P2: 8.686%
* CCC(C)(CNC(=O)Nc1nccs1)N1CCOCC1 (stereo unspecified) | Leishmania in macrophages: 17.72%; Pks13 thioesterase: -4.239%; ClpP1P2: 4.96%; T. brucei: -58.35%
* Cn1c(CO[C@H]2CN(S(C)(=O)=O)C[C@H]2F)nc2ccccc21 | Leishmania in macrophages: -2.015%; Pks13 thioesterase: 10.44%; ClpP1P2: -10.85%; T. brucei: -19%
* CCc1noc(C(C)N2CCN(CC(=O)N3CCOCC3)CC2)n1 (stereo unspecified) | Leishmania in macrophages: -0.2847%; Pks13 thioesterase: 0.3195%; ClpP1P2: 2.353%; T. brucei: -7.7%
* COc1ccccc1C(=O)NCc1n[nH]c(C)n1 | Leishmania in macrophages: 6.243%; Pks13 thioesterase: -12.55%; ClpP1P2: 4.074%; T. brucei: 3.097%
* NS(=O)(=O)CCN1CCOC(c2ccc(Cl)cc2)C1 (stereo unspecified) | Leishmania in macrophages: -2.957%; Pks13 thioesterase: -35.5%; ClpP1P2: -2.021%; T. brucei: -50.46%
* CCOCc1nn(CC2CC2)c2c1CN(Cc1ccco1)CC2 | Pks13 thioesterase: -5.586%; ClpP1P2: -8.397%
* COCCN1CCC2(CCN(CC3CC3)CC2)C1=O | Pks13 thioesterase: -43.64%; ClpP1P2: 6.66%
* CC(C)C(=O)N1CCN(c2ncnc3cc4c(cc23)OCCO4)CC1 | Leishmania in macrophages: 56.87%; Pks13 thioesterase: -4.723%; ClpP1P2: -4.501%; T. brucei: 6.711%
* CN(Cc1n[nH]c2c1CCC2)c1nc(C2CCCC2)nc2c1CNC2 | Leishmania in macrophages: -0.2377%; Pks13 thioesterase: -4.095%; ClpP1P2: -21.62%; T. brucei: -1.405%
* Cc1n[nH]c(C)c1C1COCCN1C(=O)c1cc(Cl)c[nH]1 (stereo unspecified) | Leishmania in macrophages: -5.269%; Pks13 thioesterase: 22.44%; ClpP1P2: -1.383%; T. brucei: -9.087%
* CCN(C(=O)NCCc1cccc(F)c1F)C(C)CS(C)(=O)=O (stereo unspecified) | Leishmania in macrophages: 11.2%; Pks13 thioesterase: -26.61%; ClpP1P2: -6.57%; T. brucei: -23.5%
* CN(CCn1cccn1)S(=O)(=O)c1ccc(C#N)cc1 | Leishmania in macrophages: -11.52%; Pks13 thioesterase: -9.425%; ClpP1P2: 0.3303%; T. brucei: -2.027%
* CCn1nnnc1-c1cccc(NC(N)=O)c1 | Leishmania in macrophages: -2.863%; Pks13 thioesterase: -10.92%; ClpP1P2: -7.005%; T. brucei: 14.8%
* Cc1n[nH]c(=O)c2c(NC(=O)CN3CCOCC3C)oc(C)c12 (stereo unspecified) | Leishmania in macrophages: -31.63%; Pks13 thioesterase: 3.282%; ClpP1P2: -4.43%; T. brucei: 9.866%
* COc1ccc(C(O)CNC(=O)NCc2nc(C)cs2)cc1 (stereo unspecified) | Leishmania in macrophages: -9.294%; Pks13 thioesterase: 1.861%; ClpP1P2: -12.38%; T. brucei: -18.73%
* Cc1cc(Br)ccc1C(=O)Nc1c(C(N)=O)n[nH]c1C | Leishmania in macrophages: 10.24%; Pks13 thioesterase: -38.59%; ClpP1P2: 0.9464%; T. brucei: 1.231%
* Cc1cc(C)c(S(=O)(=O)Nc2ccccc2CC(F)(F)F)cc1C(=O)O | Leishmania in macrophages: 6.312%; Pks13 thioesterase: -31.79%; ClpP1P2: -1.386%; T. brucei: 8.945%
* Cc1cnccc1CN(C)Cc1c[nH]nc1-c1ccc(F)cc1F | Leishmania in macrophages: 8.12%; Pks13 thioesterase: -13.67%; ClpP1P2: -4.339%; T. brucei: -24.1%
* Cc1nc(C2CCN(C(=O)c3cc(C4CC4)[nH]n3)CC2)no1 | Leishmania in macrophages: 23.74%; Pks13 thioesterase: -5.564%; ClpP1P2: -21.37%; T. brucei: -3.032%
* CC(C)c1nc(CN(C)C(=O)CNS(=O)(=O)c2cccs2)cs1 | Leishmania in macrophages: -10.5%; Pks13 thioesterase: -6.225%; ClpP1P2: 3.512%; T. brucei: -68.36%
* [H][C@@]12CNC[C@]1([H])CN(C(=O)c1cc(-c3ccco3)nc3c(Cl)cccc13)C2 | Leishmania in macrophages: 7.178%; T. brucei: -65.28%
* CN(C)C(=O)N1C[C@@H]2CC[C@H](C1)N(Cc1nnc(-c3ccccc3)o1)C2 | Pks13 thioesterase: -9.35%; ClpP1P2: 2.591%
* CN(C)c1ccc(C(=O)N2CCCC2c2cnn(C)c2)nn1 (stereo unspecified) | Leishmania in macrophages: 5.662%; Pks13 thioesterase: -16.91%; ClpP1P2: -6.269%; T. brucei: -49.24%
* CCN(CC(=O)NC(C)C)S(=O)(=O)N1CCCC(C)C1 (stereo unspecified) | Leishmania in macrophages: -20.84%; Pks13 thioesterase: -14.31%; ClpP1P2: 6.374%; T. brucei: -18.36%
* O=c1cc(Cn2ccnc2)nc2n1CCCN(S(=O)(=O)C1CC1)C2 | Leishmania in macrophages: 10.81%; Pks13 thioesterase: -17.17%; ClpP1P2: 1.77%; T. brucei: 1.525%
* CC(C)c1n[nH]c(C2CN(C(=O)c3cc(C4CC4)[nH]n3)CCO2)n1 (stereo unspecified) | Leishmania in macrophages: 17.58%; Pks13 thioesterase: -2.459%; ClpP1P2: -2.964%; T. brucei: 14.96%
* CCOc1ccc(C(=O)N2CCCC(n3nc(C)nc3C)C2)cc1 (stereo unspecified) | Leishmania in macrophages: -27.67%; Pks13 thioesterase: -14.49%; ClpP1P2: -13.38%
* O=C(NCCNc1ncccn1)Nc1cc(C(F)(F)F)c[nH]c1=O | Leishmania in macrophages: 22.54%; Pks13 thioesterase: -15.25%; ClpP1P2: 2.147%; T. brucei: 45.55%

The first 2 entries again:

SMILES	Leishmania in macrophages	Pks13 thioesterase	ClpP1P2	T. brucei
O=C(O)C(F)(F)F.O=C(O)C(F)(F)F.O=C(O)C(F)(F)F.[H][C@@]12COC[C@]1(COc1cccnc1)CN(Cc1cccnc1OC)C2	-5.599	-	-	-13.14
CCN1CCC[C@@H]1CNC(=O)c1cc(COc2ccccc2)[nH]n1	-66.84	-23	12.39	-40.68